US20260167731A1
No constants are given. Whether binding was seen depends on the method and setting. Some entries that bind do so weakly or less than the wild type.

Sequences of proteins named here, by UniProt entry; tags and fusion partners are left off. A change or cut given only in a name is not applied to a line headed by its entry.
UniProt P51685: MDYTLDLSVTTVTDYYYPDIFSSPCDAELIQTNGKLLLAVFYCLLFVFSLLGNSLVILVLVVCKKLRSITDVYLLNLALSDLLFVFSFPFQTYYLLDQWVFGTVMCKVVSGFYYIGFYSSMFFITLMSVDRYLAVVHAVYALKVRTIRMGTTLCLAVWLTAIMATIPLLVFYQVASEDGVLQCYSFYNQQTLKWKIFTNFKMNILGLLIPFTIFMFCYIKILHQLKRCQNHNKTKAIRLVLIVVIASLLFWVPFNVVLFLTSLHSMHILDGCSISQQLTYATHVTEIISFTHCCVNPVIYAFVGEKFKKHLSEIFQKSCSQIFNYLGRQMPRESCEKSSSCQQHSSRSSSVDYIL

Columns and labels:
[1] = molecular target: pwt1, unmodified CCR8 related peptide (human); experiment: ELISA on coated CCR8 peptide (500 ng/mL), OD [cont.]
[2] = molecular target: pm6, modified CCR8 related peptide (human); experiment: as above
[3] = molecular target: pm4, modified CCR8 related peptide (human); experiment: as above
[4] = molecular target: pm5, modified CCR8 related peptide (human); experiment: as above
[5] = molecular target: pm3, modified CCR8 related peptide (human); experiment: as above
[6] = molecular target: pm2, modified CCR8 related peptide (human); experiment: as above
[7] = molecular target: pm1, modified CCR8 related peptide (human); experiment: as above
[8] = molecular target: pm8, modified CCR8 related peptide (human); experiment: as above
human CCR8 (human) = human CCR8 (human) (UniProt P51685); experiment: flow cytometry, hCCR8 transfected CHOK1 cells

binding [1]: binds
binding [2]: binds
binding [3]: binds
binding [4]: binds
binding [5]: binds
binding [6]: binds
binding [7]: binds
binding [8]: binds
binding (human CCR8 (human)): binds
B1: anti-CCR8 mAb 2-9 (antibody, V domains shown)
VH: QVQLQQPGSELVRPGASVKLSCKASGYTFTSYWMHWVKQRPGQGLEWIGNIWPGSASTNYDEKFKNKATLTVDTSSSTAYMQLSSLTSEDSAVYYCIRGGKGAMDYWSQGTSVTVSS
VL: DVVMTQIPLSLPVSLGDQASISCRSSQSLENSYGNTYLNWYLQKPGQSPQLLIYRVSNRFSGVLDRFSGSGSGTDFTLKISRVEAEDLGVYFCLQVTHVPPTFGAGTKLELK
